PubChem BioAssay AID686937 – Drosophila RNAi Screening Center, 2013
The deposit covers about 23,000 reagents; shown is an unselected part of those with a known target gene and a result. 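Reduced-secretion tags in replicate 1 do not always agree with the z-scores; no criterion for assigning the tags was given.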 Not given: the amount of reagent.

- Purpose: 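Knock-downs that reduce output of a secreted reporter enzyme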 (primary screen)
- Cells: Drosophila S2 cells expressing secreted horseradish peroxidase
- Reagent: long dsRNA against Drosophila genes
- Duration: about 5.5 days (5 days dsRNA, then 12 h reporter induction)
- Challenge: reporter expression induced after 5 days of dsRNA, read 12 h later; inducer not stated
- Measurement: 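Chemiluminescent measurement of peroxidase in the medium 12 h after reporter induction, following 5 days of dsRNA, given as a z-score per plate; higher means more secretion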
- Direction: z-score: higher = more reporter secreted into medium

no.	target	dsRNA	z-score, replicate 1	z-score, replicate 2	z-score, replicate 3	z-score, replicate 4	phenotype, replicate 1
1	IM33	DRSC00476	-0.03	0.16			
2	Drep2	DRSC07528	0.11	0.43			
3	CR32511	DRSC20697	0.7	0.23			
4	CG34057	DRSC08375	0.22	0.3			
5	Cdk12	DRSC11836	0.05	0.06			
6	GATAd	DRSC02803	0.18	0.24			
7	Pp2C1	DRSC18699	-0.22	-0.33			
8	Tmtc4	DRSC15702	0.12	0			
9	CG14641	DRSC12227	-0.67	0.19			
10	Sec71	DRSC01893	-0.97	-0.92			
11	CG32459	DRSC11852	0.29	0.33			
12	CG8006	DRSC10949	0.24	0.16			
13	Ibf2	DRSC16551	0.05	0.36			
14	CG42525	DRSC08026	0.18	0.44	0.29	0.35	
15	CG5762	DRSC15869	0.24	0.28			
16	Btk	DRSC02008	0.61	0.24			
17	Btk	DRSC02666	0.1	0.14			
18	Btk	DRSC22427	0.28	0.14			
19	CG17376	DRSC21717	-0.14	0.15			
20	larp	DRSC14728	0.57	0.35			
21	larp	DRSC16984	0.02	-0.17			
22	larp	DRSC21856	0.28	0.18			
23	Dred	DRSC11057	0.29	0.59			
24	Dred	DRSC11059	0.53	0.53			
25	5-HT1B	DRSC05031	0.23	0.54			
26	5-HT1B	DRSC05769	-4.72	-5.21			reduced secretion
27	CG7149	DRSC03016	0.33	0.21			
28	CG13334	DRSC06369	0.03	0.32			
29	Prip	DRSC07044	0.07	0.22			
30	ds	DRSC00815	0.25	0.01			
31	CG6937	DRSC16140	0.13	-0.42			
32	CG12516	DRSC14524	0.36	0.12			
33	Andorra	DRSC19475	0.15	0.31			
